# This is one part of the list.
# B1: CcfD (Bacteroides fragilis), Q5L9G4 (protein)
# chain: MKKQNSIYTLLIALLCFVSSCDYLGVSDQLAGGLQNTEQVFDNVSYTKRWYANVFAGIPDYSGINSVNVGAFKNPWTGMCDELVVGYGNSSKYNNSDRNAANMGFHRYGDCYKYIRQANIFLQKAHPIMTTGTQGDQLLEDELTQMKANVRFMRAFYHYLLFEQYGPIILVKDKIYNATEDQDVPRNTVDEVIEYIDSELTAVASELTQEPIFEDKDYRAWPTKGVALAVRAKLWLYAASPLLNGGYREALSVTNPDGTRLFPDYDAGKWEKALAACKDFIDYAEAGRYELYKEYKDDNGAVIDPDKSVYNLFQKYTHEIIWATANNDWGGMNGDAFDRRIAPRCEKNGLGSTGVTQELVDAFYMKDGFPVSATAYLPQSTLYQEEGYGTYKDQNDNFSKKYTNVTVSNRYLNREPRFYNTVFFNGRQWPVSCNQVLFYNGGNSGVQEGQATLTGYMLFKRFNRSVSLTNPGVASQFRPSIIFRLADFYLMYAEAANEVNPNDARVLKYLNLVRERAGLPDIETLNPAIRGNQELQRAAIQRERQIELATEGQRYFDVRRWMIADKNGEGRQNGYVHGMNVRGESNDKEDFNRIVEASQIVFNRKMYLYPMPDSEMRKTKNLVQNPGW
# Key:
# Assay in all cases: glycan array binding signal (z-score within array); higher = stronger binding
# Conditions in all cases: glycan notation: IUPAC condensed, linker removed
# [1] = target: Fuc(a1-2)Gal
# In short: (§1)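 The binding signal is a Z-score computed within each array. Data were drawn from 3228 arrays in the Consortium for Functional Glycomics database, restricted to those with a known protein sequence. Scores were averaged over arrays of the same protein sequence at different concentrations or buffers, and over linkers, and negative values can be taken as non-binding.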
# [2] = target: Fuc(a1-2)Gal(b1-3)GalNAc
# In short: as §1
# [3] = target: Fuc(a1-2)Gal(b1-3)GalNAc(a1-3)[Fuc(a1-2)]Gal(b1-4)Glc
# In short: as §1
# [4] = target: Fuc(a1-2)Gal(b1-3)GalNAc(a1-3)[Fuc(a1-2)]Gal(b1-4)GlcNAc
# In short: as §1
# [5] = target: Fuc(a1-2)Gal(b1-3)GalNAc(b1-3)Gal
# In short: as §1
# [6] = target: Fuc(a1-2)Gal(b1-3)GalNAc(b1-3)Gal(a1-4)Gal(b1-4)Glc
# In short: as §1
# [7] = target: Fuc(a1-2)Gal(b1-3)GalNAc(b1-4)[Neu5Ac(a2-3)]Gal(b1-4)Glc
# In short: as §1
# [8] = target: Fuc(a1-2)Gal(b1-3)GlcNAc
# In short: as §1
# [9] = target: Fuc(a1-2)Gal(b1-3)GlcNAc(b1-2)Man(a1-3)[Fuc(a1-2)Gal(b1-3)GlcNAc(b1-2)Man(a1-6)]Man(b1-4)GlcNAc(b1-4)GlcNAc
# In short: as §1
# [10] = target: Fuc(a1-2)Gal(b1-3)GlcNAc(b1-2)Man(a1-3)[Fuc(a1-2)Gal(b1-3)GlcNAc(b1-2)Man(a1-6)]Man(b1-4)GlcNAc(b1-4)[Fuc(a1-6)]GlcNAc
# In short: as §1
# [11] = target: Fuc(a1-2)Gal(b1-3)GlcNAc(b1-3)Gal(b1-4)Glc
# In short: as §1
# [12] = target: Fuc(a1-2)Gal(b1-3)GlcNAc(b1-3)GalNAc
# In short: as §1
# [13] = target: Fuc(a1-2)Gal(b1-3)GlcNAc(b1-3)[Fuc(a1-2)Gal(b1-3)GlcNAc(b1-6)]GalNAc
# In short: as §1
# [14] = target: Fuc(a1-2)Gal(b1-3)GlcNAc(b1-3)[Gal(b1-4)GlcNAc(b1-6)]Gal(b1-4)Glc
# In short: as §1
# [15] = target: Fuc(a1-2)Gal(b1-3)GlcNAc(b1-3)[Neu5Ac(a2-6)Gal(b1-4)GlcNAc(b1-6)]Gal(b1-4)Glc
# In short: as §1
# [16] = target: Fuc(a1-2)Gal(b1-3)GlcNAc6S
# In short: as §1
# [17] = target: Fuc(a1-2)Gal(b1-3)[Fuc(a1-4)]GlcNAc
# In short: as §1
# [18] = target: Fuc(a1-2)Gal(b1-3)[Fuc(a1-4)]GlcNAc(b1-2)Man(a1-3)[Fuc(a1-2)Gal(b1-3)[Fuc(a1-4)]GlcNAc(b1-2)Man(a1-3)]Man(b1-4)GlcNAc(b1-4)GlcNAc
# In short: as §1
# [19] = target: Fuc(a1-2)Gal(b1-3)[Fuc(a1-4)]GlcNAc(b1-2)Man(a1-3)[Fuc(a1-2)Gal(b1-3)[Fuc(a1-4)]GlcNAc(b1-2)Man(a1-6)]Man(b1-4)GlcNAc(b1-4)[Fuc(a1-6)]GlcNAc(b1-4)[Fuc(a1-6)]GlcNAc
# In short: as §1
# [20] = target: Fuc(a1-2)Gal(b1-3)[Fuc(a1-4)]GlcNAc(b1-3)[Fuc(a1-3)[Gal(b1-4)]GlcNAc(b1-6)]Gal(b1-4)Glc
# In short: as §1
# [21] = target: Fuc(a1-2)Gal(b1-3)[Fuc(a1-4)]GlcNAc(b1-3)[Gal(b1-4)GlcNAc(b1-6)]Gal(b1-4)Glc
# In short: as §1
# [22] = target: Fuc(a1-2)Gal(b1-4)Fuc(a1-3)]GlcNAc(b1-2)Man(a1-3)[Fuc(a1-2)Gal(b1-4)[Fuc(a1-3)]GlcNAc(b1-2)Man(a1-6)]Man(b1-4)GlcNAc(b1-4)GlcNAc
# In short: as §1
# [23] = target: Fuc(a1-2)Gal(b1-4)Glc
# In short: as §1
# [24] = target: Fuc(a1-2)Gal(b1-4)Glc6S
# In short: as §1
# [25] = target: Fuc(a1-2)Gal(b1-4)GlcNAc
# In short: as §1
# [26] = target: Fuc(a1-2)Gal(b1-4)GlcNAc(b1-2)Man
# In short: as §1
# [27] = target: Fuc(a1-2)Gal(b1-4)GlcNAc(b1-2)Man(a1-3)[Fuc(a1-2)Gal(b1-4)GlcNAc(b1-2)Man(a1-6)]Man(b1-4)GlcNAc(b1-4)GlcNAc
# In short: as §1
# [28] = target: Fuc(a1-2)Gal(b1-4)GlcNAc(b1-2)Man(a1-3)[Fuc(a1-2)Gal(b1-4)GlcNAc(b1-2)Man(a1-6)]Man(b1-4)GlcNAc(b1-4)[Fuc(a1-6)]GlcNAc
# In short: as §1
# [29] = target: Fuc(a1-2)Gal(b1-4)GlcNAc(b1-2)[Fuc(a1-2)Gal(b1-4)GlcNAc(b1-4)]Man(a1-3)[Fuc(a1-2)Gal(b1-4)GlcNAc(b1-2)Man(a1-6)]Man(b1-4)GlcNAc(b1-4)GlcNAc
# In short: as §1
# [30] = target: Fuc(a1-2)Gal(b1-4)GlcNAc(b1-3)Gal(b1-4)GlcNAc
# In short: as §1
binder,measurement,setting,value
B1,glycan array binding signal (z-score),[1],0.811
same,glycan array binding signal (z-score),[2],0.663
same,glycan array binding signal (z-score),[3],-0.509
same,glycan array binding signal (z-score),[4],-0.969
same,glycan array binding signal (z-score),[5],-0.437
same,glycan array binding signal (z-score),[6],0.286
same,glycan array binding signal (z-score),[7],-0.696
same,glycan array binding signal (z-score),[8],-0.161
same,glycan array binding signal (z-score),[9],5.05
same,glycan array binding signal (z-score),[10],-0.338
same,glycan array binding signal (z-score),[11],-0.841
same,glycan array binding signal (z-score),[12],0.213
same,glycan array binding signal (z-score),[13],-0.2
same,glycan array binding signal (z-score),[14],-0.095
same,glycan array binding signal (z-score),[15],-0.437
same,glycan array binding signal (z-score),[16],0.391
same,glycan array binding signal (z-score),[17],0.542
same,glycan array binding signal (z-score),[18],-0.417
same,glycan array binding signal (z-score),[19],0.259
same,glycan array binding signal (z-score),[20],0.194
same,glycan array binding signal (z-score),[21],-0.962
same,glycan array binding signal (z-score),[22],0.956
same,glycan array binding signal (z-score),[23],-0.502
same,glycan array binding signal (z-score),[24],0.318
same,glycan array binding signal (z-score),[25],1.39
same,glycan array binding signal (z-score),[26],-0.128
same,glycan array binding signal (z-score),[27],-0.667
same,glycan array binding signal (z-score),[28],-0.805
same,glycan array binding signal (z-score),[29],0.259
same,glycan array binding signal (z-score),[30],0.43

# A run of entries of the results above:
binder,measurement,setting,value
B1,glycan array binding signal (z-score),[26],-0.128
same,glycan array binding signal (z-score),[27],-0.667

# Reference: the supplement of paper PMC8728848
